Results are given in words; binding and its absence hold for the method and conditions named. In cells and extracts the contact can be indirect. Binding can be weak; no strength is given.
Molecular target: T1, Flexi-cloned Halo-TNIP2 (with the C-terminal valine cloning scar), transiently expressed from the CMV promoter (human) (UniProt Q8NFZ5)
T1 sequence: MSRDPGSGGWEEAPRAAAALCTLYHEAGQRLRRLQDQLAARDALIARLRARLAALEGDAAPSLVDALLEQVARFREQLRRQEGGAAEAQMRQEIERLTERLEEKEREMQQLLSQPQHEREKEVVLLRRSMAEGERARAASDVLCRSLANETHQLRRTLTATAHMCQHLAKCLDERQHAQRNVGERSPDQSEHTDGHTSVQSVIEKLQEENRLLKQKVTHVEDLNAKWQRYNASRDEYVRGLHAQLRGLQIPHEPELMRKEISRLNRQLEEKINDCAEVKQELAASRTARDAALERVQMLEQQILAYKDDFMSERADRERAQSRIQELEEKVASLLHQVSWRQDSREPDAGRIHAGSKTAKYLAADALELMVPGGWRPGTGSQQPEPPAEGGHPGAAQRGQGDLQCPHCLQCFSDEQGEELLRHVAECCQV
Experiment: pull-down; Halo affinity purification from whole cell extracts of transfected HEK293T cells, TEV eluates analysed by SDS-PAGE and Western blotting (anti-PTPN13, anti-TNIP2, anti-FLAG)

FLAG-tagged PDZ domain region of PTPN13 (903 aa region with the five PDZ domains) (domain or fragment)
binding: binds

From PMC4336944
